# Laboratory results as given in US20260216103A1, “USE OF LONG-ACTING ß2AR AGONIST IN PREPARATION OF DRUGS FOR TREATING CANCERS” (HONG KONG SXMETEROL PHARMACEUTICAL CO., LIMITED, priority 2023, published 2026).
# Structures can show the parent of a compound that is named as a salt.
# Tested on: cancer stem cells of 17 cancers
# Assay: tumor sphere formation assays of cancer cells, summary over 17 cancers
# Type: cell-based
# Settings: summary of Examples 1-9; agonist used alone
# Text: As a gold standard for detecting the self-renewal capability of cancer stem cells in vitro, a tumor sphere formation assay may detect individual cancer stem cell that continuously self-renew in a conditioned medium and form tumor spheres consisting of multiple cells. This in vitro experiment is often used to test the responsiveness of clinical patients to anticancer drugs, and guide in vivo medication of the clinical patients.
# Cancer stem cells have self-renewal capability, which determines the initiation and progression of cancers. As a gold standard for detecting the self-renewal capability of cancer stem cells in vitro, a tumor sphere formation assay may detect individual cancer stem cells that continuously self-renew in a conditioned medium and form tumor spheres consisting of multiple cells.
structure (smiles),measurement,value
COc1ccc(C[C@@H](C)NC[C@H](O)c2ccc(O)c(NC=O)c2)cc1 [arformoterol tartrate],self-renewal capability of cancer stem cells,can significantly inhibit the self-renewal capability of cancer stem cells of 17 cancers
